Some results were stated once for a whole list of compounds, not compound by compound.
Molecular target: T1, glucocorticoid receptor (Homo sapiens, UniProt P04150)
T1 construct: endogenous in cells
T1 sequence (P04150 1-777): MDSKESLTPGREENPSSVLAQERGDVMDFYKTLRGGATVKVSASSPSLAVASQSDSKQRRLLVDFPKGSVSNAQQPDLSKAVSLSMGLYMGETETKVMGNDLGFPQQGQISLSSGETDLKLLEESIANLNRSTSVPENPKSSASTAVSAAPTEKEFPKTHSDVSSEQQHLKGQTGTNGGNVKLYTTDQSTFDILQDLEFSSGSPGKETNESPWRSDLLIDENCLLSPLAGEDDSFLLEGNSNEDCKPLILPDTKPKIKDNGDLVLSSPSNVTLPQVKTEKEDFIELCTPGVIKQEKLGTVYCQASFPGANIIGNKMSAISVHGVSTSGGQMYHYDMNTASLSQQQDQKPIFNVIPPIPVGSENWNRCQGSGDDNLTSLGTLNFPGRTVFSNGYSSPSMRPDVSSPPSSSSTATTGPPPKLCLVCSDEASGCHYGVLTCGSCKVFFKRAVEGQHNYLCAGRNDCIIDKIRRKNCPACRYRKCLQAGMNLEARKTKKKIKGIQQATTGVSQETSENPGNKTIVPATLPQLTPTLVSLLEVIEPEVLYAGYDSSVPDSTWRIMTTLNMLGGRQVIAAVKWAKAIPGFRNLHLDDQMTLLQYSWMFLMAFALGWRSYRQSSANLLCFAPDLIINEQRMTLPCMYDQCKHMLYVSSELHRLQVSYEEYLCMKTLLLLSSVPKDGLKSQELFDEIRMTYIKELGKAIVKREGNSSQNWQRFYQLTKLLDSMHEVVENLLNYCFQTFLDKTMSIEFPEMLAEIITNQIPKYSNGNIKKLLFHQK
Experiment: Ligand binding assay (GR BIND)
Settings: displacement of 3H-DEX, MDA-MB-453 cell lysate, DEX as reference
Outline: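 Displacement of tritiated dexamethasone (6 nM trace solution) from receptor in cell supernatant was measured after overnight incubation at 4 °C in molybdate-containing TEGM, pH 7.2, 2% ethanol. Hydroxylapatite pulled down the receptor–ligand complex for filter washing and scintillation counting, with dexamethasone as reference.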

SMILES | IC50 [nM]
C[C@]12Cc3cnn(-c4ccc(F)cc4)c3C=C1CC[C@@H]2CN(CC(O)C(F)F)S(=O)(=O)Cc1cccnc1 (stereo partly drawn) [Example 154, N-(3,3-difluoro-2-hydroxypropyl)-N-{[(4αR,5S)-1-(4-fluorophenyl)-4α-methyl-1,4,4α,5,6,7-hexahydrocyclopenta[f]indazol-5-yl]methyl}-1-pyridin-3-ylmethanesulfonamide] | < 1000
CCCS(=O)(=O)N(CC(O)C(F)F)C[C@H]1CCC2=Cc3c(cnn3-c3ccc(F)cc3)C[C@@]21C (stereo partly drawn) [Example 155, N-(3,3-difluoro-2-hydroxypropyl)-N-{[(4αR,5S)-1-(4-fluorophenyl)-4α-methyl-1,4,4α,5,6,7-hexahydrocyclopenta[f]indazol-5-yl]methyl}propane-1-sulfonamide] | < 1000
Cn1cc(S(=O)(=O)N(CC(O)C(F)F)C[C@H]2CCC3=Cc4c(cnn4-c4ccc(F)cc4)C[C@@]32C)c(C(F)(F)F)n1 (stereo partly drawn) [Example 156, N-(3,3-difluoro-2-hydroxypropyl)-N-{[(4αR,5S)-1-(4-fluorophenyl)-4α-methyl-1,4,4α,5,6,7-hexahydrocyclopenta[f]indazol-5-yl]methyl}-1-methyl-3-(trifluoromethyl)-1H-pyrazole-4-sulfonamide] | < 1000
Cn1cc(S(=O)(=O)N(CC(O)c2ccccn2)C[C@H]2CCC3=Cc4c(cnn4-c4ccc(F)cc4)C[C@@]32C)c(C(F)(F)F)n1 (stereo partly drawn) [Example 157, N-{[(4αR,5S)-1-(4-fluorophenyl)-4α-methyl-1,4,4α,5,6,7-hexahydrocyclopenta[f]indazol-5-yl]methyl}-N-(2-hydroxy-2-pyridin-2-ylethyl)-1-methyl-3-(trifluoromethyl)-1H-pyrazole-4-sulfonamide] | < 1000
C[C@]12Cc3cnn(-c4ccc(F)cc4)c3C=C1CC[C@@H]2CN(CC=O)S(=O)(=O)c1ccccc1F [Example 158, 2-fluoro-N-{[(4αR,5S)-1-(4-fluorophenyl)-4α-methyl-1,4,4α,5,6,7-hexahydrocyclopenta[f]indazol-5-yl]methyl}-N-(2-oxoethyl)benzenesulfonamide] | < 1000
COC(=O)c1ccccc1CCN(C[C@H]1CCC2=Cc3c(cnn3-c3ccc(F)cc3)C[C@@]21C)S(=O)(=O)CC(F)(F)F [Example 159, methyl 2-(2-{{[(4αR,5S)-1-(4-fluorophenyl)-4α-methyl-1,4,4α,5,6,7-hexahydrocyclopenta[f]indazol-5-yl]methyl}[(2,2,2-trifluoroethyl)sulfonyl]amino}ethyl)benzoate] | < 1000
COC(=O)c1cc(Cl)ccc1CCN(C[C@H]1CCC2=Cc3c(cnn3-c3ccc(F)cc3)C[C@@]21C)S(=O)(=O)CC(F)(F)F [Example 160, methyl 5-chloro-2-(2-{{[(4αR,5S)-1-(4-fluorophenyl)-4α-methyl-1,4,4α,5,6,7-hexahydrocyclopenta[f]indazol-5-yl]methyl}[(2,2,2-trifluoroethyl)sulfonyl]amino}ethyl)benzoate] | < 1000
Cc1noc(C)c1S(=O)(=O)NC[C@H]1CCC2=Cc3c(cnn3-c3ccc(F)cc3)C[C@@]21C [Example 161, N-{[(4αR,5S)-1-(4-fluorophenyl)-4α-methyl-1,4,4α,5,6,7-hexahydrocyclopenta[f]indazol-5-yl]methyl}-3,5-dimethylisoxazole-4-sulfonamide] | < 1000
COC(=O)c1ccccc1CS(=O)(=O)N(CC(O)C(F)(F)F)C[C@H]1CCC2=Cc3c(cnn3-c3ccc(F)cc3)C[C@@]21C (stereo partly drawn) [Example 162, methyl 2-({[{[(4αR,5S)-1-(4-fluorophenyl)-4α-methyl-1,4,4α,5,6,7-hexahydrocyclopenta[f]indazol-5-yl]methyl}(3,3,3-trifluoro-2-hydroxypropyl)amino]sulfonyl}methyl)benzoate] | < 1000
C[C@]12Cc3cnn(-c4ccc(F)cc4)c3C=C1CC[C@@H]2CN(CCc1ccccc1CO)S(=O)(=O)CC(F)(F)F [Example 163, 2,2,2-trifluoro-N-{[(4αR,5S)-1-(4-fluorophenyl)-4α-methyl-1,4,4α,5,6,7-hexahydrocyclopenta[f]indazol-5-yl]methyl}-N-{2-[2-(hydroxymethyl)phenyl]ethyl}ethanesulfonamide] | < 1000
C[C@]12Cc3cnn(-c4ccc(F)cc4)c3C=C1CC[C@@H]2CN(CC(O)C(F)(F)F)S(=O)(=O)Cc1ccccc1C(=O)O (stereo partly drawn) [Example 164, 2-({[{[(4αR,5S)-1-(4-fluorophenyl)-4α-methyl-1,4,4α,5,6,7-hexahydrocyclopenta[f]indazol-5-yl]methyl}(3,3,3-trifluoro-2-hydroxypropyl)amino]sulfonyl}methyl)benzoic acid] | < 1000
C[C@]12Cc3cnn(-c4ccc(F)cc4)c3C=C1CC[C@@H]2CN(CCc1ccccn1)S(=O)(=O)Cc1ccccn1 [Example 165, N-{[(4αR,5S)-1-(4-fluorophenyl)-4α-methyl-1,4,4α,5,6,7-hexahydrocyclopenta[f]indazol-5-yl]methyl}-1-pyridin-2-yl-N-(2-pyridin-2-ylethyl)methanesulfonamide] | < 1000
C[C@]12Cc3cnn(-c4ccc(F)cc4)c3C=C1CC[C@@H]2CN(CCc1ccccn1)S(=O)(=O)Cc1ccncc1 [Example 166, N-{[(4αR,5S)-1-(4-fluorophenyl)-4α-methyl-1,4,4α,5,6,7-hexahydrocyclopenta[f]indazol-5-yl]methyl}-1-pyridin-4-yl-N-(2-pyridin-2-ylethyl)methanesulfonamide] | < 1000
C[C@]12Cc3cnn(-c4ccc(F)cc4)c3C=C1CC[C@@H]2CN(CC(O)C(F)(F)F)S(=O)(=O)Cc1ccccc1C(N)=O (stereo partly drawn) [Example 167, 2-({[{[(4αR,5S)-1-(4-fluorophenyl)-4α-methyl-1,4,4α,5,6,7-hexahydrocyclopenta[f]indazol-5-yl]methyl}(3,3,3-trifluoro-2-hydroxypropyl)amino]sulfonyl}methyl) benzamide] | < 1000
Cc1noc(C)c1S(=O)(=O)N(C[C@H]1CCC2=Cc3c(cnn3-c3ccc(F)cc3)C[C@@]21C)C[C@@H](C)O [Example 168, N-{[(4αR,5S)-1-(4-fluorophenyl)-4α-methyl-1,4,4α,5,6,7-hexahydrocyclopenta[f]indazol-5-yl]methyl}-N-[(2R)-2-hydroxypropyl]-3,5-dimethylisoxazole-4-sulfonamide] | < 1000
C[C@]12Cc3cnn(-c4ccc(F)cc4)c3C=C1CC[C@@H]2CNS(=O)(=O)Cc1cccnc1 [Example 169, N-{[(4αR,5S)-1-(4-fluorophenyl)-4α-methyl-1,4,4α,5,6,7-hexahydrocyclopenta[f]indazol-5-yl]methyl}-1-pyridin-3-ylmethanesulfonamide] | < 1000
Cc1noc(C)c1S(=O)(=O)N(CC1CCCO1)C[C@H]1CCC2=Cc3c(cnn3-c3ccc(F)cc3)C[C@@]21C (stereo partly drawn) [Example 170, N-{[(4αR,5S)-1-(4-fluorophenyl)-4α-methyl-1,4,4α,5,6,7-hexahydrocyclopenta[f]indazol-5-yl]methyl}-3,5-dimethyl-N-(tetrahydrofuran-2-ylmethyl)isoxazole-4-sulfonamide] | < 1000
CCS(=O)(=O)N(CCOC)C[C@H]1CCC2=Cc3c(cnn3-c3ccc(F)cc3)C[C@@]21C [Example 171, N-{[(4αR,5S)-1-(4-fluorophenyl)-4α-methyl-1,4,4α,5,6,7-hexahydrocyclopenta[f]indazol-5-yl]methyl}-N-(2-methoxyethyl)ethanesulfonamide] | < 1000
COCCN(C[C@H]1CCC2=Cc3c(cnn3-c3ccc(F)cc3)C[C@@]21C)S(=O)(=O)c1cn(C)nc1C(F)(F)F [Example 172, N-{[(4αR,5S)-1-(4-fluorophenyl)-4α-methyl-1,4,4α,5,6,7-hexahydrocyclopenta[f]indazol-5-yl]methyl}-N-(2-methoxyethyl)-1-methyl-3-(trifluoromethyl)-1H-pyrazole-4-sulfonamide] | < 1000
COCCN(C[C@H]1CCC2=Cc3c(cnn3-c3ccc(F)cc3)C[C@@]21C)S(=O)(=O)c1c(C)noc1C [Example 173, N-{[(4αR,5S)-1-(4-fluorophenyl)-4α-methyl-1,4,4α,5,6,7-hexahydrocyclopenta[f]indazol-5-yl]methyl}-N-(2-methoxyethyl)-3,5-dimethylisoxazole-4-sulfonamide] | < 1000
CCS(=O)(=O)N(CC1CCCO1)C[C@H]1CCC2=Cc3c(cnn3-c3ccc(F)cc3)C[C@@]21C (stereo partly drawn) [Example 174, N-{[(4αR,5S)-1-(4-fluorophenyl)-4α-methyl-1,4,4α,5,6,7-hexahydrocyclopenta[f]indazol-5-yl]methyl}-N-(tetrahydrofuran-2-ylmethyl)ethanesulfonamide] | < 1000
Cc1noc(C)c1S(=O)(=O)N(C)C[C@H]1CCC2=Cc3c(cnn3-c3ccc(F)cc3)C[C@@]21C [Example 176, N-{[(4αR,5S)-1-(4-fluorophenyl)-4α-methyl-1,4,4α,5,6,7-hexahydrocyclopenta[f]indazol-5-yl]methyl}-N,3,5-trimethylisoxazole-4-sulfonamide] | < 1000

— patent publication US8299048B2, “Hexahydrocyclopentyl[f]indazole sulfonamides and derivatives thereof as selective glucocorticoid receptor modulators” (Merck Sharp & Dohme Corp., priority 2008, dated 2012)
